Experiment [1] concerns the target T1, CLN3 (tagged CLN3 expression plasmid) (UniProt Q13286).
T1 sequence: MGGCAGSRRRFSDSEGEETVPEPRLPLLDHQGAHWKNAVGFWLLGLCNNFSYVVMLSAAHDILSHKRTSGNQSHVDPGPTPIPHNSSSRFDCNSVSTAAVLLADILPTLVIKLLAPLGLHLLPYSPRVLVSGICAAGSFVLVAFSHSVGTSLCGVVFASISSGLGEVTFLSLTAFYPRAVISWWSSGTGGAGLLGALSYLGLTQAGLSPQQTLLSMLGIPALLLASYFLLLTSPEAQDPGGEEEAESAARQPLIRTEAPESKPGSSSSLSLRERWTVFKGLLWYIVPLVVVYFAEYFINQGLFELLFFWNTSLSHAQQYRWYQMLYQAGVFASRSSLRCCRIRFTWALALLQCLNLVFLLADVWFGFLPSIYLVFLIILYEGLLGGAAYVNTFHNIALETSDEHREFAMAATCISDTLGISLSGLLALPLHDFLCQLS
The experiment is described as follows: co-IP; tagged CLN3 or CLN8 expression plasmids used for immunoprecipitation; Western blot of partners; input ~3% of total protein loaded on IPs.

The target in experiment [2] is T2, hCLN6 (AAV9-hCLN6 transgene) (human) (UniProt Q9NWW5).
T2 sequence: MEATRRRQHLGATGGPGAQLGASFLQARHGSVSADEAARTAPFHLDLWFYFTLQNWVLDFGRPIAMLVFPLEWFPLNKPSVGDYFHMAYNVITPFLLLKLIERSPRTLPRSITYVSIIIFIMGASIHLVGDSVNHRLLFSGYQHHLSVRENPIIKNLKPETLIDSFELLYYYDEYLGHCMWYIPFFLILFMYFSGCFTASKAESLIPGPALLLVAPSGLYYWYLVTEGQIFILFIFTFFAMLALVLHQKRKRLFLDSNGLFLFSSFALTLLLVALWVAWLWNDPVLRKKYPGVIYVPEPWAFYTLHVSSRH
The experiment is described as follows: co-IP; hCLN6 (AAV9-hCLN6 representatives) immunoprecipitation; Western blot of partners; input ~3% of total protein loaded on IPs.

Results are given in words; binding and its absence hold for the method and conditions named. Binding seen in cells or lysates may run through a third protein. A result given as binding can be weak or reduced; the word gives no strength. For some assays here: Sequences can lack the tags named with a protein.

For “mammalian uncoordinated-18 (in neuroblastoma cells)”, in experiment [1], the binding entry was “binds”.

On to “mammalian uncoordinated-18 (mouse cortex)”, for which the binding result in experiment [2] is listed as “binds”.

For the origin of these results see publication PMC9174988.
